The list shows a part of the results.
What was measured:
Assay in all cases: log2 fold change, soluble protein after heating vs DMSO (PISA); higher = thermal stabilisation; K562 lysate, 10 uM; active = over 0.2 and 3.5 SD of the protein, either way, in both replicates (recomputed)
ibrutinib = compound: C=CC(=O)N1CCC[C@@H](n2nc(-c3ccc(Oc4ccccc4)cc3)c3c(N)ncnc32)C1 [ibrutinib]
Method in brief: (§1)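 Pellets of K562 cells were dounce-homogenised in PBS pH 7.4 with 1 mM MgCl2, and the crude extract was held at 1 mg/mL protein for a 30 min treatment with 10 μM compound. Aliquots were heated for 3 min over 48°C-58°C and pooled before NP-40 was added to 0.5% at 4°C. The supernatant from 21,000xg for 90 min was quantified by TMTpro 16plex LC-MS/MS with channel sums equalised. Values are reported from duplicates as log-two fold change in thermal stability relative to solvent controls.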

Sequences of proteins named here, by UniProt entry; tags and fusion partners are left off. A change or cut given only in a name is not applied to a line headed by its entry.
UniProt Q13243: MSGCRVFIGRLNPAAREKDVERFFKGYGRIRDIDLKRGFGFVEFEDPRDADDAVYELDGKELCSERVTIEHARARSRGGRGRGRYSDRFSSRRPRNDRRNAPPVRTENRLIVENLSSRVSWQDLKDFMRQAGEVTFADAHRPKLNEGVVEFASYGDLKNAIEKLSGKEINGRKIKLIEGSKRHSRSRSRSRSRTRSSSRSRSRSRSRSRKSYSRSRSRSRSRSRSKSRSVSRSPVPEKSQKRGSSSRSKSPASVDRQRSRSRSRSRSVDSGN
UniProt Q9UHB9: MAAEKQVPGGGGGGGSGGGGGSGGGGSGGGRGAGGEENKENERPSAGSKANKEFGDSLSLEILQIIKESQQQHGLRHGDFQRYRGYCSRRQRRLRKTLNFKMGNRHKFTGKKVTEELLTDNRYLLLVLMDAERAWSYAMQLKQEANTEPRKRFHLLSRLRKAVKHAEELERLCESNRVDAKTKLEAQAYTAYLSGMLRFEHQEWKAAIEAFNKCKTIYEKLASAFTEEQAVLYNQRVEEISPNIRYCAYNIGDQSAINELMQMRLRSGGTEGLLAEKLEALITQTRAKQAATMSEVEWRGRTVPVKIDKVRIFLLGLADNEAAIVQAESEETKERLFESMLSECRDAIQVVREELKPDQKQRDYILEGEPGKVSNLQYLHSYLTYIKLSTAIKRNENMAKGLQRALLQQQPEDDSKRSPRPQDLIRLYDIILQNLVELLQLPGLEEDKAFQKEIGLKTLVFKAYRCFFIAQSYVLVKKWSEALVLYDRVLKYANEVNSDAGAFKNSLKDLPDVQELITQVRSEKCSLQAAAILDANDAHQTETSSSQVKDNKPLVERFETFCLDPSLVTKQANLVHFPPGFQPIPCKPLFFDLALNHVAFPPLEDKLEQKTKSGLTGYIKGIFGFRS
UniProt Q9Y5M8: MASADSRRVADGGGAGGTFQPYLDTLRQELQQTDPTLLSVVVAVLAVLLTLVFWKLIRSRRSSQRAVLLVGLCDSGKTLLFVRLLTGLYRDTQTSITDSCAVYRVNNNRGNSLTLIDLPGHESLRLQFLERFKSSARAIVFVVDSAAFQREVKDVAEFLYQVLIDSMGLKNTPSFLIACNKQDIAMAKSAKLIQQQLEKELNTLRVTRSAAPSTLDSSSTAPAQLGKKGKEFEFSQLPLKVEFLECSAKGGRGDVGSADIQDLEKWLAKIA
UniProt P37108: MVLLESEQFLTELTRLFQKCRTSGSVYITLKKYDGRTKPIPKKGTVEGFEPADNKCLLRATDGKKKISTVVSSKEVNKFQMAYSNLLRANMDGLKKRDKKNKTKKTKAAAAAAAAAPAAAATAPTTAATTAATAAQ
UniProt Q14849, whole entry, looked up: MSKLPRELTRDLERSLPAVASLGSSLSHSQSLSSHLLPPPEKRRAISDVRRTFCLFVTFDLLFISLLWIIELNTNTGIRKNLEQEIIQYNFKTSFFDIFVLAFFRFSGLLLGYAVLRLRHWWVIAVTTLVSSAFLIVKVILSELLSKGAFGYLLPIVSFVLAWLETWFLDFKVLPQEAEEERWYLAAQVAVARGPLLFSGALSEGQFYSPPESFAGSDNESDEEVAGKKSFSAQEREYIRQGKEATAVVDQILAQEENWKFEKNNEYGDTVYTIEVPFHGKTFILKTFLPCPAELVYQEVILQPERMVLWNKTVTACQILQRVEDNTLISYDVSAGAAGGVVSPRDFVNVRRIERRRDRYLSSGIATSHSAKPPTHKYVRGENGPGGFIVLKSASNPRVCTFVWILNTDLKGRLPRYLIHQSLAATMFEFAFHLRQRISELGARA
UniProt Q6ZRS2, whole entry, looked up: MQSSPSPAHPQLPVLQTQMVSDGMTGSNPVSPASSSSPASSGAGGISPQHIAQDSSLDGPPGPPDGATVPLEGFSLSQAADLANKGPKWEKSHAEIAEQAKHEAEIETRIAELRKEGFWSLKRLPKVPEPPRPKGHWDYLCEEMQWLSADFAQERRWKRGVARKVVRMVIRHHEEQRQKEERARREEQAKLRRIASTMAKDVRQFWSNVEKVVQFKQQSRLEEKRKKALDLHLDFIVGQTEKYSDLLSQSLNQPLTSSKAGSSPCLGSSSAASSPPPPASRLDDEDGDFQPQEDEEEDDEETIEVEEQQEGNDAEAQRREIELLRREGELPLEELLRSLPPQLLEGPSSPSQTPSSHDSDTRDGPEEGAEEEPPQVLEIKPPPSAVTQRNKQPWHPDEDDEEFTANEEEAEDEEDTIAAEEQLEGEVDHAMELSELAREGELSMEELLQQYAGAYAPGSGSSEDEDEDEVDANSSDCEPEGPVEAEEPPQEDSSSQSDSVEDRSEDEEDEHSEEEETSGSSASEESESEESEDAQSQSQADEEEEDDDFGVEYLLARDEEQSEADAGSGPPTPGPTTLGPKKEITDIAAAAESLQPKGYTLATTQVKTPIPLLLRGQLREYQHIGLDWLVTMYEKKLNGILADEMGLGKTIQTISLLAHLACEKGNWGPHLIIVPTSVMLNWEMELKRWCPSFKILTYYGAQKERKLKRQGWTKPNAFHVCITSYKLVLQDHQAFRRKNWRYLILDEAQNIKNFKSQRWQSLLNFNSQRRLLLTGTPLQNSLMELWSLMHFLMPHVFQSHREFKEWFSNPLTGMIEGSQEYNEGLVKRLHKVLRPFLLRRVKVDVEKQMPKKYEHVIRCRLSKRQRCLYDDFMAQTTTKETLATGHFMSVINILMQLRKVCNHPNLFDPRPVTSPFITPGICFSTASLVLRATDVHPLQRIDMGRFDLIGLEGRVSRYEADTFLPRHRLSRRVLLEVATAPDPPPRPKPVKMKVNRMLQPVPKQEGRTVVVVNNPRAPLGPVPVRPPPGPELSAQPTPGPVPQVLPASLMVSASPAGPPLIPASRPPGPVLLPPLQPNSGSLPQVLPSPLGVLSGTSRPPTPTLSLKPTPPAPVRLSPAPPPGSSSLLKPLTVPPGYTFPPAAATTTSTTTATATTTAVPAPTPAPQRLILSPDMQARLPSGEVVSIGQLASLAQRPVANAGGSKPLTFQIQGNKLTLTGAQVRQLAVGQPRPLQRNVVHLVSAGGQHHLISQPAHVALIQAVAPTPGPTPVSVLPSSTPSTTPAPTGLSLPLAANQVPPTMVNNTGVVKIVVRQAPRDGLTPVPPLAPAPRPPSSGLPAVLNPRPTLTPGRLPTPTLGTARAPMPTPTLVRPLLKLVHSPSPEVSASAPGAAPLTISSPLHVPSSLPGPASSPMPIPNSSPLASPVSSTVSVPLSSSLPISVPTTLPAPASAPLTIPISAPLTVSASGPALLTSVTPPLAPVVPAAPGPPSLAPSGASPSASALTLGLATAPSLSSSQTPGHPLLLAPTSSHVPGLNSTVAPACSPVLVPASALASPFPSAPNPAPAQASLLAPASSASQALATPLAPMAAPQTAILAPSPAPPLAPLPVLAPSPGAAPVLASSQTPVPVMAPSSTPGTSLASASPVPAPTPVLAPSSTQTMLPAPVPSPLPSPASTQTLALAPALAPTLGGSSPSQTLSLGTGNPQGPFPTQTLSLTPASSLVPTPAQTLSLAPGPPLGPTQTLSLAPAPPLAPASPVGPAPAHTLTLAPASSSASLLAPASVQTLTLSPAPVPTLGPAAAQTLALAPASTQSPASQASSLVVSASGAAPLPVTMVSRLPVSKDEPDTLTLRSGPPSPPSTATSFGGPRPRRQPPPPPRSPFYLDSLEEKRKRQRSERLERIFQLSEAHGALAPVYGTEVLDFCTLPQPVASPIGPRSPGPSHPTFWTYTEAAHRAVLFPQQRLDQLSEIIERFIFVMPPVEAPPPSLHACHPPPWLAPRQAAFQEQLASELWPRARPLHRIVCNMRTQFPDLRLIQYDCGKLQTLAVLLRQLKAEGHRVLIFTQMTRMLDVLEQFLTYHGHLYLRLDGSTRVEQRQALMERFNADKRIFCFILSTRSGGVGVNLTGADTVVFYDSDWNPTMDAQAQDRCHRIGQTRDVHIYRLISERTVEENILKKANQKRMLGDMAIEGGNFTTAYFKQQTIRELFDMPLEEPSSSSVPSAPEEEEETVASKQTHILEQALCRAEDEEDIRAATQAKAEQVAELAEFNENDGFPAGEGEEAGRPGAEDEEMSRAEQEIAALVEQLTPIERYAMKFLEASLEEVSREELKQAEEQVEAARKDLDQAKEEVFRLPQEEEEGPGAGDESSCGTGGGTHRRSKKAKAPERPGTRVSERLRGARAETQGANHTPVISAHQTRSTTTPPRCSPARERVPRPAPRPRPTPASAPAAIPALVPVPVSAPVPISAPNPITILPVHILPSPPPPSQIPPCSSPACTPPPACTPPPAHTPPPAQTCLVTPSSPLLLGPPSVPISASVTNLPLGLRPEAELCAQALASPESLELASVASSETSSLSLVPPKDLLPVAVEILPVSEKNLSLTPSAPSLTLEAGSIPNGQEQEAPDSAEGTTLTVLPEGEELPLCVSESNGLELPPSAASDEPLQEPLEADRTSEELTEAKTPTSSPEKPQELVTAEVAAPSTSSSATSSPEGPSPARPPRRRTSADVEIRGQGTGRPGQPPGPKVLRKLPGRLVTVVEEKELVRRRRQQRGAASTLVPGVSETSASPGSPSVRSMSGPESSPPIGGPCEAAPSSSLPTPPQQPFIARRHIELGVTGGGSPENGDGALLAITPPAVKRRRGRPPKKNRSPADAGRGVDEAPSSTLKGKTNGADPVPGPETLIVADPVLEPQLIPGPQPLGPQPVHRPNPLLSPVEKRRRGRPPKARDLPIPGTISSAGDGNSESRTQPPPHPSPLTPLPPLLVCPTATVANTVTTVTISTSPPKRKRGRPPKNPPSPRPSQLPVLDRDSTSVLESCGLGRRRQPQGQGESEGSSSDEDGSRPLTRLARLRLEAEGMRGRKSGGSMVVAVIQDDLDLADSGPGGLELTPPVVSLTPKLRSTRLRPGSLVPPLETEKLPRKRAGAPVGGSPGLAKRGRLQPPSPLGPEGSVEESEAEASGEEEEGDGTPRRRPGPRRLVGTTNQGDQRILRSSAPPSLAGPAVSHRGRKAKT
UniProt O43805: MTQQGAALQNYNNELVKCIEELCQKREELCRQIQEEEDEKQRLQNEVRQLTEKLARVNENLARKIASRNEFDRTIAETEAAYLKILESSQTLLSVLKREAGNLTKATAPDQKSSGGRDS
UniProt Q14534: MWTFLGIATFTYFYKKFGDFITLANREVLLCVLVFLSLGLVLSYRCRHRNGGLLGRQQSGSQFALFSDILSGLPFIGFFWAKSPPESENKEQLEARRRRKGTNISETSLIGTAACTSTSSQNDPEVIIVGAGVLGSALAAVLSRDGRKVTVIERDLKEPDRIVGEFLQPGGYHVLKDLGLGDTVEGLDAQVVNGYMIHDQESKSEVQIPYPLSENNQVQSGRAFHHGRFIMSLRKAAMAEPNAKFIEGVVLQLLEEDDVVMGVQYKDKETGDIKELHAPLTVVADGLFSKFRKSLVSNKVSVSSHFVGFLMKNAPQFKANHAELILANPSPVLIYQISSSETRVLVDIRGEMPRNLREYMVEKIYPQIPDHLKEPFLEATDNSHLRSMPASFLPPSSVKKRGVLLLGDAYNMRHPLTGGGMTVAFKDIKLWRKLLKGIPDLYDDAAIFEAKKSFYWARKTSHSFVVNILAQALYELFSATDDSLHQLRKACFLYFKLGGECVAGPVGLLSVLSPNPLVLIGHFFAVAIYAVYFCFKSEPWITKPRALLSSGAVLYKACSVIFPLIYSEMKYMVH
UniProt P11831: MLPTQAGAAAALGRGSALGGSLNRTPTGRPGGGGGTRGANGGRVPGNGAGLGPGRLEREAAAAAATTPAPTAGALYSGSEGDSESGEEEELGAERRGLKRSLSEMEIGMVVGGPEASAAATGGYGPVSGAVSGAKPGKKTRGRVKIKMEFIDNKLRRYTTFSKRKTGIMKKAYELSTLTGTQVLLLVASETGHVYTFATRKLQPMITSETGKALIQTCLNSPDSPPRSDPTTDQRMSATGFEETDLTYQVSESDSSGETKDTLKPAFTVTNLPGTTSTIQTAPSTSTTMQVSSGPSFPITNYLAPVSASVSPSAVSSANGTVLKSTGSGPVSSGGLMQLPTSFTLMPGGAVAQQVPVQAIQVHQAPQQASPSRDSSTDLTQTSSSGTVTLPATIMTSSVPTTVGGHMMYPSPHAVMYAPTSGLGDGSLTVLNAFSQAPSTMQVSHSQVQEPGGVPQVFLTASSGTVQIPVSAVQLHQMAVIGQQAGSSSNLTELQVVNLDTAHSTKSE
UniProt Q15005: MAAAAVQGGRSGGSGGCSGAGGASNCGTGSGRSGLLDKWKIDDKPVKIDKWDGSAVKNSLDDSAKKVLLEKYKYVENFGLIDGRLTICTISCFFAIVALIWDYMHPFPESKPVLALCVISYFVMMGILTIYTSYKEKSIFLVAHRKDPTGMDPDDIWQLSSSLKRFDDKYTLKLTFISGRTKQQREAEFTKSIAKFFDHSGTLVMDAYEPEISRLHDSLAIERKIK

[1] = compound: CC(=O)c1cnc2ccc(-c3cc(Cl)c(O)c(Cl)c3)nc2c1N[C@H]1CC[C@H](CN(C)C)CC1
Method in brief: as §1

ralimetinib = compound: CC(C)(C)Cn1c(N)nc2ccc(-c3[nH]c(C(C)(C)C)nc3-c3ccc(F)cc3)nc21 [ralimetinib]
Method in brief: as §1

[2] = compound: CC(C)(O)CC(=O)NCCn1ccc2ncnc(Nc3ccc(Oc4cccc(C(F)(F)F)c4)c(Cl)c3)c21
Method in brief: as §1

[3] = compound: CC(C)C1=C2N=C(C=C(N2N=C1)NCC3=CC=CC=C3)NCCCCCCN
Method in brief: as §1

[4] = compound: CC1=C(C(CC(=O)N1)C2=CC=C(C=C2)C(F)(F)F)C(=O)NC3=C(C=C4C(=C3)C=NN4)F
Method in brief: as §1

[5] = compound: CC1=C(C2=C(C=C1)C(=O)C3=CC=CC=C3N2CCCN)C
Method in brief: as §1

[6] = compound: CC1=C(C=C(C=C1)NC(=O)C2=CC(=CC=C2)C(C)(C)C#N)NC3=CC4=C(C=C3)N=CN(C4=O)C
Method in brief: as §1

[7] = compound: CC1=C(C=C(C=C1)NC(=O)C2=CC(=CC=C2)N(C)C)NC(=O)C3=CC=C(C=C3)O
Method in brief: as §1

[8] = compound: CC1=CC=C(C=C1)SC2=C3C=C(SC3=CN=C2)C(=O)N
Method in brief: as §1

vemurafenib = compound: CCCS(=O)(=O)Nc1ccc(F)c(C(=O)c2c[nH]c3ncc(-c4ccc(Cl)cc4)cc23)c1F [vemurafenib]
Method in brief: as §1

[9] = compound: CCCS(=O)(=O)Nc1ccc(F)c(C(=O)c2c[nH]c3ncc(Cl)cc23)c1F
Method in brief: as §1

barasertib = compound: CCN(CCCOc1ccc2c(Nc3cc(CC(=O)Nc4cccc(F)c4)[nH]n3)ncnc2c1)CCOP(=O)(O)O [barasertib]
Method in brief: as §1

[10] = compound: CC[C@@H]1C(=O)N(C)c2cnc(Nc3ccc(C(=O)NC4CCN(C)CC4)cc3OC)nc2N1C1CCCC1
Method in brief: as §1

volasertib = compound: CC[C@@H]1C(=O)N(C)c2cnc(Nc3ccc(C(=O)N[C@H]4CC[C@H](N5CCN(CC6CC6)CC5)CC4)cc3OC)nc2N1C(C)C [volasertib]
Method in brief: as §1

[11] = compound: CCn1c(C(=O)N(C2CC2)C2CC2)cc2c3c(ncn3C)c(Nc3cc(C)n(C)n3)nc21
Method in brief: as §1

[12] = compound: CCn1cc(-c2ccnc3[nH]c(-c4cccc(CN(C)C)c4)cc23)c(-c2ccc(NC(=O)N(C)C)cc2)n1
Method in brief: as §1

[13] = compound: CN1CCC(CNc2ccc3ncc(-c4cccc(OC(F)(F)F)c4)n3n2)CC1
Method in brief: as §1

saracatinib = compound: CN1CCN(CCOc2cc(OC3CCOCC3)c3c(Nc4c(Cl)ccc5c4OCO5)ncnc3c2)CC1 [saracatinib]
Method in brief: as §1

sotrastaurin = compound: CN1CCN(c2nc(C3=C(c4c[nH]c5ccccc45)C(=O)NC3=O)c3ccccc3n2)CC1 [sotrastaurin]
Method in brief: as §1

Measured: log2 fold change

SRBD1 (UniProt Q8N5C6)
inactive: ibrutinib -0.057 | [1] -0.012 | ralimetinib 0.02 | [2] -0.094 | [3] 0 | [4] -0.05 | [5] -0.057 | [6] 0.041 | [7] -0.022 | [8] 0.056 | vemurafenib 0.109 | [9] -0.001 | barasertib 0.07 | [10] 0.048 | volasertib 0.056 | [11] 0.019 | [12] -0.089 | [13] 0.12 | saracatinib 0.033 | sotrastaurin -0.078

SPG7 (UniProt Q9UQ90)
inactive: ibrutinib 0.008 | [1] 0.156 | ralimetinib -0.014 | [2] -0.313 | [3] 0.037 | [4] 0.062 | [5] -0.005 | [6] 0.016 | [7] -0.217 | [8] 0.102 | vemurafenib 0.027 | [9] -0.025 | barasertib 0.131 | [10] 0.017 | volasertib 0.053 | [11] 0.26 | [12] 0.057 | [13] 0.025 | saracatinib -0.037 | sotrastaurin -0.035

SRP72 (UniProt O76094)
inactive: ibrutinib -0.027 | [1] -0.009 | ralimetinib 0.021 | [2] 0.02 | [3] 0.005 | [4] 0.003 | [5] -0.055 | [6] -0.011 | [7] -0.001 | [8] 0.017 | vemurafenib 0.019 | [9] 0.027 | barasertib 0.013 | [10] 0.01 | volasertib -0.017 | [11] -0.012 | [12] -0.018 | [13] -0.074 | saracatinib 0.018 | sotrastaurin 0.011

SRSF5 (UniProt Q13243)
inactive: ibrutinib 0.006 | [1] -0.002 | ralimetinib 0.045 | [2] 0.004 | [3] -0.003 | [4] -0.004 | [5] -0.031 | [6] 0.048 | [7] 0.045 | [8] -0.001 | vemurafenib 0.021 | [9] 0.006 | barasertib -0.027 | [10] -0.035 | volasertib 0.02 | [11] -0.03 | [12] -0.027 | [13] 0.053 | saracatinib 0.009 | sotrastaurin 0.048

SRP68 (UniProt Q9UHB9)
inactive: ibrutinib -0.071 | [1] -0.015 | ralimetinib -0.019 | [2] -0.002 | [3] 0 | [4] 0.01 | [5] -0.045 | [6] -0.035 | [7] 0.009 | [8] 0.001 | vemurafenib 0.028 | [9] 0.016 | barasertib 0.017 | [10] 0.029 | volasertib -0.022 | [11] -0.001 | [12] 0.178 | [13] -0.173 | saracatinib -0.005 | sotrastaurin 0.019

STAT1 (UniProt P42224)
inactive: ibrutinib -0.002 | [1] -0.026 | ralimetinib 0.03 | [2] 0.006 | [3] -0.002 | [4] 0 | [5] 0.029 | [6] 0.014 | [7] 0.039 | [8] 0.006 | vemurafenib -0.016 | [9] 0.018 | barasertib 0.058 | [10] -0.058 | volasertib -0.078 | [11] 0.012 | [12] -0.071 | [13] -0.01 | saracatinib 0.021 | sotrastaurin 0.03

SRPRB (UniProt Q9Y5M8)
inactive: ibrutinib 0.003 | [1] -0.039 | ralimetinib -0.016 | [2] 0.032 | [3] -0.057 | [4] -0.014 | [5] -0.014 | [6] -0.009 | [7] -0.005 | [8] -0.01 | vemurafenib -0.006 | [9] 0.007 | barasertib -0.035 | [10] -0.013 | volasertib -0.047 | [11] 0.01 | [12] 0.001 | [13] 0.001 | saracatinib 0 | sotrastaurin 0

2 records drawn at random from those above:
SRBD1 (UniProt Q8N5C6)
inactive: ibrutinib -0.057 | [1] -0.012 | ralimetinib 0.02 | [2] -0.094 | [3] 0 | [4] -0.05 | [5] -0.057 | [6] 0.041 | [7] -0.022 | [8] 0.056 | vemurafenib 0.109 | [9] -0.001 | barasertib 0.07 | [10] 0.048 | volasertib 0.056 | [11] 0.019 | [12] -0.089 | [13] 0.12 | saracatinib 0.033 | sotrastaurin -0.078

STAT1 (UniProt P42224)
inactive: ibrutinib -0.002 | [1] -0.026 | ralimetinib 0.03 | [2] 0.006 | [3] -0.002 | [4] 0 | [5] 0.029 | [6] 0.014 | [7] 0.039 | [8] 0.006 | vemurafenib -0.016 | [9] 0.018 | barasertib 0.058 | [10] -0.058 | volasertib -0.078 | [11] 0.012 | [12] -0.071 | [13] -0.01 | saracatinib 0.021 | sotrastaurin 0.03

(list continues)

SRP14 (UniProt P37108)
inactive: ibrutinib -0.021 | [1] -0.026 | ralimetinib -0.01 | [2] -0.03 | [3] 0.009 | [4] 0.08 | [5] -0.014 | [6] 0.006 | [7] 0.025 | [8] -0.022 | vemurafenib 0.002 | [9] -0.016 | barasertib -0.024 | [10] 0.023 | volasertib 0.016 | [11] -0.031 | [12] -0.11 | [13] -0.012 | saracatinib -0.006 | sotrastaurin 0.02

STARD3 isoform 3 (UniProt Q14849)
inactive: ibrutinib 0.039 | [1] 0.044 | ralimetinib -0.074 | [2] -0.018 | [3] 0.011 | [4] 0.033 | [5] -0.072 | [6] 0.073 | [7] 0.021 | [8] 0.028 | vemurafenib 0.029 | [9] 0.054 | barasertib 0.051 | [10] 0.289 | volasertib 0.18 | [11] -0.031 | [12] -0.122 | [13] 0.02 | saracatinib -0.091 | sotrastaurin -0.016

SRCAP (UniProt Q6ZRS2)
inactive: ibrutinib -0.023 | [1] -0.003 | ralimetinib 0.078 | [2] 0.015 | [3] -0.04 | [4] 0.051 | [5] 0.007 | [6] -0.005 | [7] 0.017 | [8] -0.003 | vemurafenib -0.003 | [9] -0.004 | barasertib 0.004 | [10] 0.009 | volasertib 0 | [11] 0.034 | [12] 0.035 | [13] 0.034 | saracatinib 0.057 | sotrastaurin -0.004

SSNA1 (UniProt O43805)
inactive: ibrutinib 0.187 | [1] 0.017 | ralimetinib -0.049 | [2] 0.012 | [3] 0.003 | [4] -0.012 | [5] -0.026 | [6] 0.013 | [7] 0.02 | [8] -0.024 | vemurafenib -0.067 | [9] -0.022 | barasertib 0.134 | [10] 0.075 | volasertib 0.027 | [11] 0.016 | [12] -0.005 | [13] -0.002 | saracatinib 0.013 | sotrastaurin 0.004

SPNS1 (UniProt Q9H2V7)
inactive: ibrutinib 0.02 | [1] -0.001 | ralimetinib 0.005 | [2] -0.009 | [3] 0.007 | [4] -0.009 | [5] -0.007 | [6] 0.047 | [7] -0.029 | [8] 0.012 | vemurafenib 0 | [9] 0.036 | barasertib -0.004 | [10] 0.154 | volasertib -0.004 | [11] -0.097 | [12] -0.014 | [13] 0.064 | saracatinib -0.006 | sotrastaurin 0.02

SPR (UniProt P35270)
inactive: ibrutinib 0.027 | [1] 0.293 | ralimetinib 0.024 | [2] 0 | [3] -0.048 | [4] -0.051 | [5] -0.038 | [6] -0.046 | [7] -0.028 | [8] 0.023 | vemurafenib 0.01 | [9] 0.026 | barasertib -0.013 | [10] -0.014 | volasertib -0.003 | [11] -0.024 | [12] 0.158 | [13] -0.028 | saracatinib 0.093 | sotrastaurin -0.047

SQLE (UniProt Q14534)
inactive: ibrutinib 0.028 | [1] 0.051 | ralimetinib 0.081 | [2] -0.047 | [3] 0 | [4] -0.02 | [5] -0.006 | [6] 0.039 | [7] -0.06 | [8] -0.027 | vemurafenib 0.036 | [9] -0.01 | barasertib 0.103 | [10] 0.051 | volasertib 0.073 | [11] -0.063 | [12] -0.06 | [13] -0.02 | saracatinib 0.077 | sotrastaurin 0.065

SRF (UniProt P11831)
inactive: ibrutinib -0.078 | [1] 0.223 | ralimetinib 0.041 | [2] -0.03 | [3] -0.002 | [4] 0.087 | [5] -0.035 | [6] -0.002 | [7] -0.038 | [8] -0.013 | vemurafenib 0.029 | [9] 0.027 | barasertib 0.155 | [10] 0.069 | volasertib 0.039 | [11] -0.111 | [12] -0.029 | [13] -0.041 | saracatinib 0.043 | sotrastaurin 0.02

SPCS2 (UniProt Q15005)
inactive: ibrutinib -0.028 | [1] 0.008 | ralimetinib 0.001 | [2] 0 | [3] -0.058 | [4] 0 | [5] 0.027 | [6] -0.006 | [7] -0.01 | [8] 0.001 | vemurafenib 0.018 | [9] 0.003 | barasertib 0.009 | [10] -0.005 | volasertib -0.01 | [11] 0.032 | [12] 0.12 | [13] -0.156 | saracatinib -0.005 | sotrastaurin -0.007

Source: the supplement of paper PMC10849652
